Here are results for 2 compounds from US11492636B2, “Modified bialaphos resistance acetyltransferase compositions and uses thereof” (Whitehead Institute for Biomedical Research, priority 2016, dated 2022).

This data set has as its system BAR-containing Arabidopsis. Put plainly: LC-MS quantification of acetyl-aminoadipate and acetyl-tryptophan in BAR-containing Arabidopsis T-DNA mutants. The format is in vivo, Arabidopsis thaliana. The note with it: for abundance in senescent leaf tissue: BAR-containing Arabidopsis, estimated.

With `CC(=O)N[C@@H](CCCC(=O)O)C(=O)O` [acetyl-aminoadipate, N-acetyl-L-aminoadipate], the “abundance in senescent leaf tissue” value is reported as “around 100 μg/g fresh weight”. In addition, the “acetyl-aminoadipate level in homozygous mutant” value (FLAG_lkrsdh homozygous, after senescence induction) is on record as “greatly reduced”.

Regarding `CC(=O)N[C@@H](Cc1c[nH]c2ccccc12)C(=O)O` [acetyl-tryptophan, N-acetyl-L-tryptophan], the “abundance in senescent leaf tissue” value was around 10 μg/g fresh weight.
